Source: PMC3236217
Results are given in words; binding and its absence hold for the method and conditions named. In cells and extracts the contact can be indirect. Some results given as binding are weak or reduced against the parent protein; the word gives no strength.

Sequences of proteins named here, by UniProt entry; tags and fusion partners are left off.
UniProt P17870: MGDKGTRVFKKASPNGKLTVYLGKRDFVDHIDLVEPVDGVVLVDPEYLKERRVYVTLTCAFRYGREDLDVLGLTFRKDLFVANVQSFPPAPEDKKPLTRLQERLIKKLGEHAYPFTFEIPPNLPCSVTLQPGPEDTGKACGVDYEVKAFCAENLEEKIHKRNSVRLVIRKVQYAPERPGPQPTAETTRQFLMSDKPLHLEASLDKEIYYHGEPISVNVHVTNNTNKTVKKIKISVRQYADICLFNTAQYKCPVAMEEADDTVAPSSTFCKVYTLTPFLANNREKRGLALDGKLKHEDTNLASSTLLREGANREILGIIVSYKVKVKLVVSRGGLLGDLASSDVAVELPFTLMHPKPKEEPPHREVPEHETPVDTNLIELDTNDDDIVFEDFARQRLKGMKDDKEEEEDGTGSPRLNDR

Legend:
[1] = target: Flag-tagged WT arrestin-2 (UniProt P17870); assay: co-IP; COS-7 cells co-transfected, serum starved, with or without 10 µM isoproterenol (10 min, 37°C) and with or without HA-β2AR over-expression; anti-Flag immunoprecipitation of arrestin, anti-HA blot; lysis buffer with 250 mM NaCl, 0.5% Nonidet P-40
[2] = target: Flag-tagged WT arrestin-3 (UniProt P32120); assay: as above

Row | binding [1] | binding [2] | Substance
1 | binds | binds | MEK1-HA (from UniProt Q02750 1-393) (enzyme)
2 | binds | binds | c-Raf1-HA (from UniProt P04049 1-648) (enzyme)
